Publication PMC7261910

The chains behind the UniProt entries cited, without tags or fusion partners. Residues count along the entry.
UniProt Q5L747: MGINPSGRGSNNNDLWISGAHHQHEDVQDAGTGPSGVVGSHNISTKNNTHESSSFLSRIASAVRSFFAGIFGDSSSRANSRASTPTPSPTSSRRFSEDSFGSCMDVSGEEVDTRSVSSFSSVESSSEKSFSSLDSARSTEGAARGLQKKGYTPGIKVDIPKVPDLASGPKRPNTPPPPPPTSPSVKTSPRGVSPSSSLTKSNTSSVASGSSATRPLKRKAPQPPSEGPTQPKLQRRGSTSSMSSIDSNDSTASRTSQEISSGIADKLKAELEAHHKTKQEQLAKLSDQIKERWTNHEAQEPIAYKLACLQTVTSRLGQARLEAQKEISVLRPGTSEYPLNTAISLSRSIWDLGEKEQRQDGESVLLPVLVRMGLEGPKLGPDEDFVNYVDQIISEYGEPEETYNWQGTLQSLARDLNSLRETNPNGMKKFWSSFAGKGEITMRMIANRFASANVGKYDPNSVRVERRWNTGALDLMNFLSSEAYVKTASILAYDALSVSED
UniProt P02545, residues 1-646: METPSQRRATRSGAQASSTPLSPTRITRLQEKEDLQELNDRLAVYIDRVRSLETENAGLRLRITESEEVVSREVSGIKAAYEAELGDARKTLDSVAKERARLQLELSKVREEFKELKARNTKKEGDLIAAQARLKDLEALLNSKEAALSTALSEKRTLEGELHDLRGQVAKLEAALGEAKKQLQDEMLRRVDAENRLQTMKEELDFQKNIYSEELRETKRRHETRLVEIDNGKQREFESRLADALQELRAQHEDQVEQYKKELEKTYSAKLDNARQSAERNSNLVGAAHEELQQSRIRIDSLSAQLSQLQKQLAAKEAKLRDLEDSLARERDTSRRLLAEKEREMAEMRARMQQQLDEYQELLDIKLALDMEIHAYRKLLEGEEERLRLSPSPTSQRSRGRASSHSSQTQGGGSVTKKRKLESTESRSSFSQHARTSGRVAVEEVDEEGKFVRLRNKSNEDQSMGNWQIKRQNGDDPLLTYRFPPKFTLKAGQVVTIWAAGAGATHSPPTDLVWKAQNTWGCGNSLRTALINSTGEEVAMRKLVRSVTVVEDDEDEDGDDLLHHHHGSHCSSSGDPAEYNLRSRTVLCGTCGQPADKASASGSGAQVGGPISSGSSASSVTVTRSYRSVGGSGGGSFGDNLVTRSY

B1: C. abortus chaperone DnaK (heat shock protein 70, HSP70) (protein, UniProt Q8GH79 1-659)
chain: MSEQKKSSKIIGIDLGTTNSCVSVMEGGQAKVIVSSEGTRTTPSIVAFKGNETLVGIPAKRQAVTNPAKTLASTKRFIGRKYSEVESEIKTVPYQVASGSNGDVVFPIDGKQFTPEEIGAQVLIKMKETAEAYLGEPVTEAVITVPAYFNDSQRASTKDAGRIAGLDVKRIIPEPTAAALAYGIDKAGDKKIAVFDLGGGTFDISILEIGDGVFEVLSTNGDTHLGGDDFDEVIIKWMIEEFQKQEGIDLSKDNMALQRLKDAAEKAKIELSGMSSTEINQPFITMDANGPKHLTLTLTRAHFEKLASNLIERTKAPCQKALADAKLAASDIDDVLLVGGMSRMPAVQEVVKSIFGKEPNKGVNPDEVVAIGAAIQGGVLGGEVKDVLLLDVIPLSLGIETLGGVMTPLVERNTTIPTQKKQIFSTAADNQPAVTIVVLQGERPMAKDNKEIGRFDLTDIPPAPRGHPQIEVTFDIDANGILHVSAKDAASGREQKIRIEASSGLKEDEIQRMINDAEKNKEEDKKRREASDVRNEADSMIFRAEKAISDYKENIPESLTKEIEERIEKVRSALKEDAPTEKIKEASDELSRHMQKIGEAMQSQSASAAANAQDGPNINTEDLKKHSFSTKPPTGNSSSSANNENIEEADVEIVDKPND

Columns and labels:
[1] = molecular target: recombinant His-tagged CAB063 (Chlamydia abortus) (UniProt Q5L747); assay: affinity purification with mass spectrometry; only the target purified
[2] = molecular target: CAB063 of Chlamydia abortus S26/3, as made by the bacteria in experimentally infected HeLa cells (Chlamydia abortus S26/3 (endogenous in the bacteria that infect the HeLa cells)) (UniProt Q5L747); assay: affinity purification with mass spectrometry

Row | Molecule | binding [1] | binding [2]
1 | human lamin A/C (pre-lamin A/C) (from UniProt P02545 1-646) | binds | 
2 | B1 |  | binds

Results are given in words; binding and its absence hold for the method and conditions named. Binding seen in cells or lysates may run through a third protein. These calls come from enrichment with a bait or labelling near it, and not all partners need be listed.
